# Some results were stated once for a whole list of compounds, not compound by compound.
# Test system: MOLM-13.luc.c4 (MOLM-13 human AML cells)
# Assay: Antitumor efficacy and survival/increase in life span (ILS) in disseminated MOLM-13.luc.c4 AML model
# Type: in vivo, SCID beige mice
# Conditions: iv compound I-B, oral (po) compound (A), MOLM-13 model
# Description: Female SCID beige mice (10/group), obtained from Charles River Laboratories (Wilmington, DE) were used when they were approximately 8-12 weeks old and weighed approximately 20-25 grams. The health of the mice was assessed daily by gross observation and analyses of blood samples taken from sentinel animals housed on shared shelf racks. All animals were allowed to acclimate and recover from any shipping-related stress for a minimum of 72 hours prior to experimental use. Autoclaved water and irradiated food (5058-ms Pico Lab mouse chow, Purina Mills, Richmond, IN) were provided ad libitum, and the animals were maintained on a 12 hour light and dark cycle. […]
# For increased life span (ILS) assessment, animal body weights were measured two to three times per week, and animals were monitored daily for any clinical signs of toxicity or excessive tumor burden (i.e. hind limb paralysis or morbidity). In addition, progression of disease was monitored by in vivo bioluminescent imaging (BLI) using IVIS® Spectrum system. […] Images were captured by the IVIS® Spectrum system and data were collected and analyzed with Living Image 4.2.0 software (Caliper Life Sciences, Hopkinton, MA). Total photon fluxes (ph/s) representing luciferase activity within each fixed region of interest (ROI) covering whole tumors of individual mice were determined. […]
structure (smiles),measurement,value
"COc1cc(C(=O)O)ccc1NC(=O)[C@@H]1N[C@@H](CC(C)(C)C)[C@](C#N)(c2ccc(Cl)cc2F)[C@H]1c1cccc(Cl)c1F [compound (A), 4-{[(2R,3S,4R,5S)-4-(4-Chloro-2-fluoro-phenyl)-3-(3-chloro-2-fluoro-phenyl)-4-cyano-5-(2,2-dimethyl-propyl)-pyrrolidine-2-carbonyl]-amino}-3-methoxy-benzoic acid]",increase in lifespan (ILS) as monotherapy compared to Vehicle control,up to 37%
